{"source": "patent US7608626B2", "about": "“Substituted indolizines and derivatives as CNS agents” (Wyeth, priority 2004, dated 2009)", "molecular_target": "T1, human 5-hydroxytryptamine-2C (h-5-HT2C) receptor (Homo sapiens, UniProt P28335)", "T1 construct": "expressed in transfected cells; host or cells: Chinese Hamster Ovary (CHO) cells; membrane preparation", "T1 sequence (P28335 33-458)": "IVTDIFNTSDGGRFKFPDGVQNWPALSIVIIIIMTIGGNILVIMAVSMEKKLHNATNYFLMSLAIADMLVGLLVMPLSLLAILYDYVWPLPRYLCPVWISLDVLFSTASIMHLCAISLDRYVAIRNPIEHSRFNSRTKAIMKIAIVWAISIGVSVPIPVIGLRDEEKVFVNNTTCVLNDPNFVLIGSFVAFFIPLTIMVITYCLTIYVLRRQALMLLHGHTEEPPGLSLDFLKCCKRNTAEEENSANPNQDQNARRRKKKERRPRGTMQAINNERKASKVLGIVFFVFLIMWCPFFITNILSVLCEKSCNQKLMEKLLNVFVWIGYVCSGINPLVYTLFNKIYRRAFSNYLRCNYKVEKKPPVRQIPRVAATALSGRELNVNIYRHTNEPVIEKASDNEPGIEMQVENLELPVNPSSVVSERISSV", "assay": "[125I]DOI binding to membranes of CHO cells expressing h-5-HT2C receptor", "settings": "saturation binding with increasing concentrations of [125I]DOI; read-out: dissociation constant, KD", "data": [{"molecule": "COc1cc(CC(C)N)c(OC)cc1I", "note": "(stereo not shown) [[^125I] DOI, reference compound]", "values": [{"measurement": "Kd", "value": 0.4, "unit": "nM"}]}]}
